{"source": "patent US7008953B2", "about": "“3, 5 Disubstituted indazole compounds, pharmaceutical compositions, and methods for mediating or inhibiting cell proliferation” (Agouron Pharmaceuticals, Inc., priority 2003, dated 2006)", "format_in_all_cases": "biochemical", "conditions_in_all_cases": "method of Davies et al.", "key": {"[1]": {"system": "p70 ribosomal protein S6 kinase (P70s6K1)", "experiment": "Panel of protein kinases: P70s6K1", "procedure": "(§1) The compounds of the present invention were screened against a large panel of protein kinase to determine inhibition activity for CDK as against a variety of protein kinases. The assay was conducted using methods and materials described by Davies, S et al. Specificity and Mechanism of Action of Some Commonly Used Protein Kinase Inhibitors, Biochem J. 351, 95–105 (2000), the contents of which are herein incorporated by reference. […]"}, "[2]": {"system": "AMP-activiated protein kinase (AMPK)", "experiment": "Panel of protein kinases: AMPK", "procedure": "as §1"}, "[3]": {"system": "Rho-dependent protein kinase (ROCK-II)", "experiment": "Panel of protein kinases: ROCK-II", "procedure": "as §1"}, "casein kinase 2 (CK2)": {"system": "casein kinase 2 (CK2)", "experiment": "Panel of protein kinases: CK2", "procedure": "as §1"}}, "note": "For at least one compound, name, drawing or mass did not settle the structure.", "data": [{"smiles": "CCNCc1cncc(-c2ccc3[nH]nc(-c4nc5cc(F)ccc5[nH]4)c3c2)c1C", "note": "[Example 2, Ethyl-{5-[3-(5-fluoro-1H-benzoimidazol-2-yl)-1H-indazol-5-yl]-4-methyl-pyridin-3-ylmethyl}-amine]", "values": [{"measurement": "Kinase P70s6K1 inhibition", "setting": "[1]", "result": "− (Weak inhibition <50%)"}, {"measurement": "Kinase AMPK inhibition", "setting": "[2]", "result": "++ (Strong inhibition >75%)"}, {"measurement": "Kinase ROCK-II inhibition", "setting": "[3]", "result": "+ (Moderate inhibition 50–75%)"}, {"measurement": "Kinase CK2 inhibition", "setting": "casein kinase 2 (CK2)", "result": "− (Weak inhibition <50%)"}]}]}
